In PMC9068942:
Results are given in words; binding and its absence hold for the method and conditions named. In cells and extracts the contact can be indirect. Some binding calls cover weakened binding; strength is not graded here.

By UniProt entry, the sequences of proteins in these tests, tags left out.
UniProt P26599: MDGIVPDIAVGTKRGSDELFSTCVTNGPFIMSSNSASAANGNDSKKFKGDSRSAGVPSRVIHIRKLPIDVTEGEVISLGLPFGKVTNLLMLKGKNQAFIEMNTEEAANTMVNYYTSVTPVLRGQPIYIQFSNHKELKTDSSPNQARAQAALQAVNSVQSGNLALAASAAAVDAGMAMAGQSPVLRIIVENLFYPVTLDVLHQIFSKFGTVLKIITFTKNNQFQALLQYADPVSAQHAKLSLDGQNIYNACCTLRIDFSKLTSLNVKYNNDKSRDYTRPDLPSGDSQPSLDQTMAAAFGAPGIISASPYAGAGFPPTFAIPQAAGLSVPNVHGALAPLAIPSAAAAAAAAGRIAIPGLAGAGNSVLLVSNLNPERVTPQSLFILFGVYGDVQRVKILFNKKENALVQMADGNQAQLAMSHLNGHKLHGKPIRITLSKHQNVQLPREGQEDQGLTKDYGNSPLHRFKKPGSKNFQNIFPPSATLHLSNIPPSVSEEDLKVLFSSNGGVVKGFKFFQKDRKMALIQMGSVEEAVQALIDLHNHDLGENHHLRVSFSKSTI

T1: NEK2 (human (endogenous in MDA-MB-231)) (UniProt P51955)
T1 sequence: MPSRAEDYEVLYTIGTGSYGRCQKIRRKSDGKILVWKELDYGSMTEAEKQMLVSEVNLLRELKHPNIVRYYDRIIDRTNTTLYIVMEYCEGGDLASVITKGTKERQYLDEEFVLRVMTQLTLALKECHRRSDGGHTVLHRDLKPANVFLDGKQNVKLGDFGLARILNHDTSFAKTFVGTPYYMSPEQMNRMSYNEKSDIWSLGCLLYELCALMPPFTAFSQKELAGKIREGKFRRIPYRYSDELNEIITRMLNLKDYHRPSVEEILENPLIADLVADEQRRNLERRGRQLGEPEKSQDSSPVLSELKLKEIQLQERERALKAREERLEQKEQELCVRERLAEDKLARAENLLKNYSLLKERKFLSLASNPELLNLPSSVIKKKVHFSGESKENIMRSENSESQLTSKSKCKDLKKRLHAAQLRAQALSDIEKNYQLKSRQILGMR

B1: hnRNPL (protein, UniProt P14866 1-589)
chain: MSRRLLPRAEKRRRRLEQRQQPDEQRRRSGAMVKMAAAGGGGGGGRYYGGGSEGGRAPKRLKTDNAGDQHGGGGGGGGGAGAAGGGGGGENYDDPHKTPASPVVHIRGLIDGVVEADLVEALQEFGPISYVVVMPKKRQALVEFEDVLGACNAVNYAADNQIYIAGHPAFVNYSTSQKISRPGDSDDSRSVNSVLLFTILNPIYSITTDVLYTICNPCGPVQRIVIFRKNGVQAMVEFDSVQSAQRAKASLNGADIYSGCCTLKIEYAKPTRLNVFKNDQDTWDYTNPNLSGQGDPGSNPNKRQRQPPLLGDHPAEYGGPHGGYHSHYHDEGYGPPPPHYEGRRMGPPVGGHRRGPSRYGPQYGHPPPPPPPPEYGPHADSPVLMVYGLDQSKMNCDRVFNVFCLYGNVEKVKFMKSKPGAAMVEMADGYAVDRAITHLNNNFMFGQKLNVCVSKQPAIMPGQSYGLEDGSCSYKDFSESRNNRFSTPEQAAKNRIQHPSNVLHFFNAPLEVTEENFFEICDELGVKRPSSVKVFSGKSERSSSGLLEWESKSDALETLGFLNHYQMKNPNGPYPYTLKLCFSTAQHAS
B2: QKI (protein, UniProt Q96PU8 1-341)
chain: MVGEMETKEKPKPTPDYLMQLMNDKKLMSSLPNFCGIFNHLERLLDEEISRVRKDMYNDTLNGSTEKRSAELPDAVGPIVQLQEKLYVPVKEYPDFNFVGRILGPRGLTAKQLEAETGCKIMVRGKGSMRDKKKEEQNRGKPNWEHLNEDLHVLITVEDAQNRAEIKLKRAVEEVKKLLVPAAEGEDSLKKMQLMELAILNGTYRDANIKSPALAFSLAATAQAAPRIITGPAPVLPPAALRTPTPAGPTIMPLIRQIQTAVMPNGTPHPTAAIVPPGPEAGLIYTPYEYPYTLAPATSILEYPIEPSGVLGAVATKVRRHDMRVHPYQRIVTADRAATGN

molecular target: T1, NEK2 (human (endogenous in MDA-MB-231)); assay: co-IP; nuclear extracts of MDA-MB-231 cells; anti-NEK2 antibody or control mouse IgG overnight at 4°C, Protein-G magnetic beads; washes with 20 mM HEPES pH 7.9, 15 mM MgCl2, 120 mM KCl, 0.2 mM EDTA, 25% glycerol; Western blot

binding | Molecule
binds | PTBP1 (from UniProt P26599 1-557)
binds | B1
no binding | B2
